Data as given in PubChem BioAssay AID1671190 (National Center for Advancing Translational Sciences (NCATS), 2021).
The whole screen tested about 580,000 compounds, of which about 6,100 (1.1%) were called active. This list was built around the results that the source calls inconclusive (neither active nor inactive); the mix of calls is not that of the screen. Calls come from the whole dose curve; as a rule, active = well fitted inhibition curve with a large enough effect; inconclusive = small, poorly fitted or top-dose-only effect, or another doubt; inactive = no such curve, though single readings can be large or run the other way. Potencies beside an inconclusive call are fits to weak or partial responses and may not hold up.

Chains of the proteins cited; added tags and fusions are not shown. Lines headed by an entry give the natural chain unless they say otherwise; changes in a name come on top.
UniProt P18054: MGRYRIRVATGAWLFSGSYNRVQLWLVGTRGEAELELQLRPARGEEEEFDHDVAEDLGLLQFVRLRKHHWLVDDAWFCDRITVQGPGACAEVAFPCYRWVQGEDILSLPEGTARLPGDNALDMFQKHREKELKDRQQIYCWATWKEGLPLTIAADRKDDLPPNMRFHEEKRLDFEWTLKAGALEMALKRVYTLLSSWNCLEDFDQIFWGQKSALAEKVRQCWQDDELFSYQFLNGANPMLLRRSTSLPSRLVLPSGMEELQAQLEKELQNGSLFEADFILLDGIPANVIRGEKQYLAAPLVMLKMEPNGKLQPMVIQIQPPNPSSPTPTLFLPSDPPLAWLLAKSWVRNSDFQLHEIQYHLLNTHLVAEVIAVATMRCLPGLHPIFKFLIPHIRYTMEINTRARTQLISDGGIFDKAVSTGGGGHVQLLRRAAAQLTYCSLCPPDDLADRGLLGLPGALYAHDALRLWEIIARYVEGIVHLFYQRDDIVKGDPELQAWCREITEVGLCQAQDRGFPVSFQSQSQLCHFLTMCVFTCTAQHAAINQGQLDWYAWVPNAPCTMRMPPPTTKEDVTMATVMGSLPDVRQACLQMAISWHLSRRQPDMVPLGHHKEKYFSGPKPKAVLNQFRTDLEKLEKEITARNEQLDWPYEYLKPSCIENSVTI

target: Polyunsaturated fatty acid lipoxygenase ALOX12 (Homo sapiens) (UniProt P18054); test: Primary qHTS assay for inhibitors of human arachidonate 12S-lipoxygenase (ALOX12): Round 2; conditions: purified 12hLO, xylenol orange hydroperoxide absorbance; activity change, negative = inhibition: at 108 µM (top of the series) unless noted
Procedure, shortened: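 Purified human 12hLO at 150 nM in 25 mM Hepes, 0.01% Triton X-100, pH 7.0, preincubated 15 min at room temperature with compound. Reaction started with 40 uM arachidonic acid, 30 min at room temperature. Hydroperoxide measured by Fe-xylenol orange, 573/405 nm absorbance ratio.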
% is set by controls: 0 for no effect and ±100 for the full control effect; potency is the fitted concentration of half-maximal effect.

| SMILES | Potency | activity change, negative = inhibition |
| --- | --- | --- |
| O=C(Nc1ccc2ccccc2c1)c1ccccc1O | inactive |  |
| Cc1cc(NC(=O)CCC2CCCC2)no1 |  | inconclusive: -31.2% [inhibitor] |
| N#CCCN(CCC#N)C(=S)NC1CC2C=CC1C2 (configuration not stated) | inconclusive: 44.7 µM [inhibitor, single point] |  |
| Cc1ccc(NS(=O)(=O)c2ccc(C(=O)Nc3nncs3)cc2)cc1 | inconclusive: 44.7 µM [inhibitor, partial curve, poor fit] |  |
| O=C(c1cc(F)ccc1F)C1CCCN(Cc2cccn2-c2ccccn2)C1 (configuration not stated) | inactive |  |
| C[C@H]1[C@@H](NS(=O)(=O)c2cc(Cl)cc(Cl)c2)CC[C@@]23CCCN2C(=O)CCC[C@@H]13 | inactive |  |
| CC(C)CCN1CC(CN[S+](=O)([O-])c2ccccc2)C2(C1)CN(c1ccccc1)C2 (configuration not stated) | inactive |  |
| Cc1cccc(C(=O)N2CCn3nnc(CCC(=O)NC4CC4)c3C2)c1 | inactive |  |
| Cc1ccc(C)c(OCCC(=O)OCC(=O)c2c(N)n(C)c(=O)n(C)c2=O)c1 | inconclusive: 141 µM [inhibitor, partial curve, poor fit] |  |
| CCc1ccc(NC(=O)c2sc3nc(C)c(Cl)c(C)c3c2NC(=O)c2ccccc2)cc1 | inactive |  |
| Cc1cc(Cl)ccc1OCC(=O)NCc1ccc(-c2nc3ncccc3o2)cc1 | inactive |  |
| CC(C)c1ccccc1NC(=O)c1ccc2ncsc2c1 | inconclusive: 50.1 µM [inhibitor, partial curve, poor fit] |  |
| Cn1c(C(=O)NCCOc2ccccc2Cl)cc(=O)n(C)c1=O | inactive |  |
| O=C(NCCc1ccc(Cl)cc1)c1nc(-c2ccc(Cl)cc2Cl)c2ccccn12 | inconclusive: 79.4 µM [inhibitor, single point] |  |
| O=C(O)c1ccc2c(c1)N(Cc1ccc(F)cc1Cl)C(=O)c1ccccc1S2 | inconclusive: 63.1 µM [inhibitor, partial curve, poor fit] |  |
| Cc1ccc(OCc2nnc(SC(C)C(=O)O)n2-c2ccccc2)cc1 (configuration not stated) | inconclusive: 126 µM [inhibitor, single point] |  |
| COC(=O)c1cc(C#N)c(N(C)Cc2ccccc2)nc1C | inactive |  |
| CCCN(C(=O)COC(=O)CSc1ccc([N+](=O)[O-])cc1)C1CCS(=O)(=O)C1 (configuration not stated) | inactive |  |
| COc1ccc(CN2C(=O)CN(C3CCCCCC3)C(=O)C2c2ccc(OC)c(OC)c2)cc1 (configuration not stated) | inactive |  |
| CCN1C(=S)SC(=O)C1=C1C=C(C)N(CCO)C(C)=C1 | inconclusive: 14.1 µM [inhibitor, full curve, poor fit] |  |
| O=C(Cn1cc(Br)c(=O)[nH]c1=O)N1CCC(C(=O)N2CCCCC2)CC1 | inactive |  |
| Cc1nc2ccccc2c(=O)n1/N=C/c1c(O)ccc2ccccc12 | inactive |  |
| Cc1ccccc1C(=O)Nc1ccc2nc(N3CCN(CCC#N)CC3)cc(C(=O)O)c2c1 | inconclusive: 5.62 µM [inhibitor, full curve, poor fit] |  |
| Cc1cccc(C(=O)Nc2cccc3cccnc23)c1 | inactive |  |

| SMILES | Potency | activity change, negative = inhibition |
| --- | --- | --- |
| CCN(CC)CCNC(=O)c1nn(-c2ccc(Cl)cc2)c2c1CCc1cc(OC)ccc1-2 | inconclusive: 39.8 µM [inhibitor, partial curve, poor fit] |  |
| O=C(/C=C/c1ccccc1)Nc1cccnc1Oc1ccccc1F | inconclusive: 3.16 µM [inhibitor, full curve, poor fit] |  |
| O=C(Nc1ccccc1C(=O)Nc1ccccc1C(=O)O)c1ccccc1 | inconclusive: 50.1 µM [inhibitor, partial curve, poor fit] |  |
| Cc1ccc(OCC(=O)NCCN2CCOCC2)cc1C | inactive |  |
| N#Cc1c(SCc2c(Cl)cccc2Cl)nc(N)[nH]c1=S | active: 31.6 µM |  |
| N#Cc1c(/N=C/c2cccs2)sc2c1CCC2 | inconclusive: 5.62 µM [inhibitor, full curve, poor fit] |  |
| CCOP(=O)(OCC)/C(=N/OC(=O)c1ccc(OC)cc1)C(N)=O | inconclusive: 31.6 µM [inhibitor, partial curve, poor fit] |  |
| O=C(NC(=S)Nc1nc2c(s1)CCCC2)c1ccc(C(=O)c2ccccc2)cc1 | inconclusive: 39.8 µM [inhibitor, partial curve, poor fit] |  |
| COc1ccc(C(C)=O)cc1COc1ccc(Cl)cc1Cl | inconclusive: 141 µM [inhibitor, single point] |  |
| CCN(C(=O)c1cnc(N2CCOCC2)c2ccccc12)c1cc(C)ccc1C | inactive |  |
| CC(C)N(Cc1ccccc1)C(=O)CN1C(=O)COc2ccc(S(=O)(=O)N3CCCCCC3)cc21 | inconclusive: 25.1 µM [inhibitor, full curve, poor fit] |  |
| Cc1c(Cl)ccc2c(C(=O)NC3CCC(C)CC3)cc(-c3cccnc3)nc12 (configuration not stated) | inconclusive: 126 µM [inhibitor, single point] |  |
| CC(NCC(=O)NCCc1ccc(S(N)(=O)=O)cc1)c1ccc(F)cc1 (configuration not stated) | inactive |  |
| CC(Cn1cccn1)NC(=O)N1CCN(Cc2cccnc2)CC1 (configuration not stated) | inconclusive: 14.1 µM [inhibitor, partial curve, poor fit] |  |
| Cc1cc(NC(=O)CN(C)CC(=O)Nc2ccc(Cl)cc2)no1 | inconclusive: 112 µM [inhibitor, single point] |  |
| CCOC(=O)/C(C#N)=N/Nc1ccccc1C(=O)O | inconclusive: 25.1 µM [inhibitor, single point] |  |
| CCCOc1ccc(NC(=O)Cc2cccc3ccccc23)c2cccnc12 | inactive |  |
| Cc1noc(C)c1S(=O)(=O)NCC1(COc2ccc(S(C)(=O)=O)cc2)C[C@@H](O)[C@@H](O)C1 (some centres not stated) | inconclusive: 31.6 µM [inhibitor, full curve] |  |
| O=C(NC(=S)NCC1COc2ccccc2O1)c1ccccc1 (configuration not stated) | inconclusive: 35.5 µM [inhibitor, partial curve, poor fit] |  |
| CC1CC1C(=O)Nc1cc(C(C)(C)C)ccc1O (configuration not stated) | inconclusive: 100 µM [inhibitor, single point] |  |
| COc1ccccc1OCC(=O)Sc1ccc(Cl)cc1 | inconclusive: 31.6 µM [inhibitor, partial curve] |  |
| CCOC(=O)[C@H]1[C@H]2COc3ccc(C)cc3[C@@H]2N2C(=O)c3ccc(Cl)cc3NC(=O)[C@@]12C | inactive |  |
| Cc1ccc(-c2csc(/C=C/c3ccc(C(F)(F)F)cc3)n2)cc1 | inconclusive: 100 µM [inhibitor, single point] |  |
| N=C(N)SCc1ccccn1 | inconclusive: 2.82 µM [inhibitor, full curve, poor fit] |  |

| SMILES | Potency | activity change, negative = inhibition |
| --- | --- | --- |
| Fc1ccccc1-c1ccc(-c2nn3c(-c4ccco4)nnc3s2)o1 | active: 8.91 µM |  |
| O=C(NC1CCCN(c2cc(-c3ccc(F)cc3)[nH]n2)C1)c1ccccc1F (configuration not stated) | inactive |  |
| O=c1c(CCc2ccccc2)nc2cnc(N3CCOCC3)nc2n1Cc1ccc(F)cc1 | inconclusive: 31.6 µM [inhibitor, single point] |  |
| CCc1cc(-c2n[nH]c(C)c2-c2nc3ccccc3n2C)c(O)c(CN2CCN(C)CC2)c1O | inactive |  |
| O=C1c2ccccc2C(=Nc2ccccc2)C1c1cccc(Br)c1 (configuration not stated) | inactive |  |
| Cc1ccc(S(=O)(=O)N2CCC(=O)N(CCOC(=O)Nc3cccc(Cl)c3)CC2)cc1 | inconclusive: 44.7 µM [inhibitor, partial curve, poor fit] |  |
| OC1(c2ccc(Cl)cc2)CN(c2ccccc2)C2=[N+]1CCS2 (configuration not stated) | inconclusive: 35.5 µM [inhibitor, partial curve, poor fit] |  |
| CN(Cc1cccc(F)c1)C(=O)Cn1c(=O)c2c(ncn2C)n(C)c1=O | inactive |  |
| COc1ccc(N2CCN(CC(O)COc3cc(C)ccc3C)CC2)cc1 (configuration not stated) | inconclusive: 31.6 µM [inhibitor, partial curve, poor fit] |  |
| O=C(Nc1ccccc1N1CCOCC1)c1cc(-c2ccco2)nc2ccccc12 | inactive |  |
| Cc1ccc(-n2c(=O)[nH]c3ncccc3c2=O)cc1 | inactive |  |
| C(=N\N1CCN(c2ccccn2)CC1)/c1ccccn1 | inconclusive: 79.4 µM [inhibitor, partial curve, poor fit] |  |
| COc1ccccc1N1CCN(C(=O)c2sc3nc(C)nc(N4CCN(c5ccccn5)CC4)c3c2C)CC1 | inconclusive: 35.5 µM [inhibitor, single point] |  |
| O=C1CCCCCN1CC(=O)N1CCCC(OCc2ccccc2)C1 (configuration not stated) | inactive |  |
| CC(C)(C)C1CCC(=NNC(=S)NC2CCCCC2)CC1 (configuration not stated) | inconclusive: 28.2 µM [inhibitor, partial curve, poor fit] |  |
| O=C(Nc1ccc(F)c([N+](=O)[O-])c1)C1CCCO1 (configuration not stated) | inconclusive: 89.1 µM [inhibitor, single point] |  |
| Cc1ccccc1N(CC(=O)N1CCCCCC1)S(C)(=O)=O | inconclusive: 3.16 µM [inhibitor, full curve, poor fit] |  |
| Clc1ccc(Nc2ncnc3c2cnn3-c2ccccc2)cc1 | active: 25.1 µM |  |
| CCOC(=O)c1c(NC(=O)CC)sc(C(C)=O)c1C | inconclusive: 100 µM [inhibitor, single point] |  |
| COCc1cc(C)nc(OCC(=O)N/N=C/c2cc(C)n(-c3c(C)cccc3C)c2C)c1C#N | inactive |  |
| CC1C(=O)Nc2ccc(S(=O)(=O)NCCc3ccc(Cl)cc3)cc2NC1=O (configuration not stated) | inactive |  |
| CCOC(=O)Cc1nnc(Nc2cccc(C)c2)c2ccccc12 | inactive |  |
| O=S(=O)(c1ccc(-c2cnc(C3CC3)o2)cc1)N1CCN(c2cccc(Cl)c2)CC1 | inactive |  |
| O=C1[C@@H]2C[C@@H](CN2C(=O)C2CCOCC2)Oc2ccccc2N1Cc1ccccn1 | inconclusive: 70.8 µM [inhibitor, partial curve] |  |

3 compounds from above, arranged by SMILES length, high to low.

| SMILES | Potency | activity change, negative = inhibition |
| --- | --- | --- |
| COCc1cc(C)nc(OCC(=O)N/N=C/c2cc(C)n(-c3c(C)cccc3C)c2C)c1C#N | inactive |  |
| COc1ccc(N2CCN(CC(O)COc3cc(C)ccc3C)CC2)cc1 (configuration not stated) | inconclusive: 31.6 µM [inhibitor, partial curve, poor fit] |  |
| CCOC(=O)Cc1nnc(Nc2cccc(C)c2)c2ccccc12 | inactive |  |
